Source: US20060073152A1
Results are given in words; binding and its absence hold for the method and conditions named. Some binding calls cover weakened binding; strength is not graded here. Sequences can lack the tags named with a protein.

Protein sequences, listed by entry. Tags and fused reporters are not part of them. Residues count along the entry.
UniProt P02768, residues 25-609: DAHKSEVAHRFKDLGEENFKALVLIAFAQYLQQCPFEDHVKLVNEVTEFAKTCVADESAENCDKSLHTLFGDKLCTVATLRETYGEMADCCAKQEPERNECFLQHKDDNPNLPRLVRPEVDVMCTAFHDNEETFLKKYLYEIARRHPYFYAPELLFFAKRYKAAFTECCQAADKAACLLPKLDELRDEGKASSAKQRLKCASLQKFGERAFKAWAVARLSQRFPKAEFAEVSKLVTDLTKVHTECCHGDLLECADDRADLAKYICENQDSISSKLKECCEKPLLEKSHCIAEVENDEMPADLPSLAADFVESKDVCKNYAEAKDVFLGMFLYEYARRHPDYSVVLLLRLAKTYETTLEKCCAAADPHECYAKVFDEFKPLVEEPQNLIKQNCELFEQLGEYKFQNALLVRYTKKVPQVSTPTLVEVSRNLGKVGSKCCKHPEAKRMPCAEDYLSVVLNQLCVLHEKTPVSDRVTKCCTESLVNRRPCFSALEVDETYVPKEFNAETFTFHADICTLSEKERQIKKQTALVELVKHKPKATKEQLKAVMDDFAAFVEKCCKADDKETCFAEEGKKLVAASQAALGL

Target: human serum albumin (human) (UniProt P02768)
Experiment: phage binding

## GRSFCMDWPAHKSCTPLML [HA-H83]
  binding: binds
